Some of the results follow.
Assays:
Experiment in all cases: log2 fold change, soluble protein after heating vs DMSO (PISA); higher = thermal stabilisation; K562 cells, 10 uM, 30 min; active = over 0.2 and 3.5 SD of the protein, either way, in both replicates (recomputed)
[1] = compound: Cc1ccc(NC(=O)c2ccc(CN3CC[C@H](N(C)C)C3)c(C(F)(F)F)c2)cc1Nc1nccc(-c2cncnc2)n1 [bafetinib]
How it was run: (§1)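 Soluble protein was defined as the supernatant after 21,000xg for 90 min. It came from K562 cells at 2×10^6 cells/mL given 10 μM compound for 30 min, heated in aliquots for 3 min across 48°C-58°C, pooled, and extracted in PBS with 0.5% NP-40 at 4°C, and was quantified by TMTpro 16plex LC-MS/MS with equalised channel sums. Thermal stability against control samples, from duplicates, is reported as log2 fold change.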

By UniProt entry, the sequences of proteins in these tests, tags left out. Where a name states a change or a piece, a line headed by the entry shows the natural chain unless it says otherwise.
UniProt Q96HW7, whole entry, looked up: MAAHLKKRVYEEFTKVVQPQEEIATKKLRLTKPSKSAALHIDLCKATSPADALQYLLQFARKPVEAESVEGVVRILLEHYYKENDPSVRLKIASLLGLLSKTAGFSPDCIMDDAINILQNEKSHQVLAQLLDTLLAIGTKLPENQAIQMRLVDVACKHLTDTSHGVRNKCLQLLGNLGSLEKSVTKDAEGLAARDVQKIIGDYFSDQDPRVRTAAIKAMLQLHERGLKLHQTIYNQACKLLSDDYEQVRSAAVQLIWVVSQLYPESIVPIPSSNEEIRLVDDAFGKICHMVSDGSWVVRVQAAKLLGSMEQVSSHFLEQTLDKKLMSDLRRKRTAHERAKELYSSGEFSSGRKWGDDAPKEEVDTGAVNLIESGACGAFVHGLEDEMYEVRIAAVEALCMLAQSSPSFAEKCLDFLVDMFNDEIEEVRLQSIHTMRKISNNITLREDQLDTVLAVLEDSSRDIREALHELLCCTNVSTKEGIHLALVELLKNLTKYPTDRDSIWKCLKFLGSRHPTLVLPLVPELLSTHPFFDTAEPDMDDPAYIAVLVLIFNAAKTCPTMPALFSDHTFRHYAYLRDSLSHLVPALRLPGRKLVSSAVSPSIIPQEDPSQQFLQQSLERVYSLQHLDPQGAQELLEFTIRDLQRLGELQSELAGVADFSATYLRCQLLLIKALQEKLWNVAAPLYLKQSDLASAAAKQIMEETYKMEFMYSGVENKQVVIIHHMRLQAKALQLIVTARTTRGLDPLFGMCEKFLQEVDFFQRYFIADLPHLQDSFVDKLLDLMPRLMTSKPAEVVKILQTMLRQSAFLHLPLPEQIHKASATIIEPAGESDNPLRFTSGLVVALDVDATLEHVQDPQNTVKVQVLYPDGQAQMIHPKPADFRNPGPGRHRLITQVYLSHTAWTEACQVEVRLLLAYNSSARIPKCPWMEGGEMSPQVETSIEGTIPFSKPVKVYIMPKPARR
UniProt P19823: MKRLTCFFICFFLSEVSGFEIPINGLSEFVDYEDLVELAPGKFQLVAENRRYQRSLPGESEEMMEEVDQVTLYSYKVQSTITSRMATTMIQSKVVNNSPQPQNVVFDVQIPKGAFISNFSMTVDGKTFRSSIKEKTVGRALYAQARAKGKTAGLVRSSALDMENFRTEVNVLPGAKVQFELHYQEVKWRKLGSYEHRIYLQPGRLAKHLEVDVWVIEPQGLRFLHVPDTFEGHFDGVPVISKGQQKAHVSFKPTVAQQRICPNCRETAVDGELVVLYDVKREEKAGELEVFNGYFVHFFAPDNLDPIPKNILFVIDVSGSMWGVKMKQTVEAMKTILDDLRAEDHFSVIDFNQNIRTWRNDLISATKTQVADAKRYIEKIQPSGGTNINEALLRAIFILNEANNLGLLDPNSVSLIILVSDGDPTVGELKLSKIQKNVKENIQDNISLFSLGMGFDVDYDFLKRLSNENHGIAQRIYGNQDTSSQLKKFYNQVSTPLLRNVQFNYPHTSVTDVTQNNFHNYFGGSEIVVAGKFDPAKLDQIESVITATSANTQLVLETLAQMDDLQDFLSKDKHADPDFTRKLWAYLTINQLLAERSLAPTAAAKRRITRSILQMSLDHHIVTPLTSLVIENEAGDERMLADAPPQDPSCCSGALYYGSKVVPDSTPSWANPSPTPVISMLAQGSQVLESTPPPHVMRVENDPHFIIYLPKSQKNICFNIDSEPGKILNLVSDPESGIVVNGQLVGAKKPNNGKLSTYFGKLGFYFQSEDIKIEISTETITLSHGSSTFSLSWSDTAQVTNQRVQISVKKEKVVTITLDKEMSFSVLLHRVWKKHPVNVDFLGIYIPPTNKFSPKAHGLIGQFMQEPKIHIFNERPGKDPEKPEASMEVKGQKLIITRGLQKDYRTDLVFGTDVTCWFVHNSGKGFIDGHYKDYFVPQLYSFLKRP
UniProt Q8WZA9: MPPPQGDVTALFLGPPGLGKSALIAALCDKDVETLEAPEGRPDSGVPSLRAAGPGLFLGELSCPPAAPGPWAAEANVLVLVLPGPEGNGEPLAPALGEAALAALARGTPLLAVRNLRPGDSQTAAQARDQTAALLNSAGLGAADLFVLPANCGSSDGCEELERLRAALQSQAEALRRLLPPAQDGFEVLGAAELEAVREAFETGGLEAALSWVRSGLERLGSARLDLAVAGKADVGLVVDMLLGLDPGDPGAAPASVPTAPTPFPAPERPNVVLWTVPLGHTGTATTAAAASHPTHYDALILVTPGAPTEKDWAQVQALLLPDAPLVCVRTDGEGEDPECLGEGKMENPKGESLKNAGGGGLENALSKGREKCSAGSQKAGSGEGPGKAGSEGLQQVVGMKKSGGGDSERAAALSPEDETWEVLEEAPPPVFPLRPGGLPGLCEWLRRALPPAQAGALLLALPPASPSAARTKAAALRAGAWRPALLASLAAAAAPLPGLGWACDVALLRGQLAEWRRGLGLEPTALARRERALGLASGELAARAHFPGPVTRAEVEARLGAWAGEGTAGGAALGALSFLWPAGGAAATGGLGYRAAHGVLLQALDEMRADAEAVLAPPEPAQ
UniProt Q9NX62: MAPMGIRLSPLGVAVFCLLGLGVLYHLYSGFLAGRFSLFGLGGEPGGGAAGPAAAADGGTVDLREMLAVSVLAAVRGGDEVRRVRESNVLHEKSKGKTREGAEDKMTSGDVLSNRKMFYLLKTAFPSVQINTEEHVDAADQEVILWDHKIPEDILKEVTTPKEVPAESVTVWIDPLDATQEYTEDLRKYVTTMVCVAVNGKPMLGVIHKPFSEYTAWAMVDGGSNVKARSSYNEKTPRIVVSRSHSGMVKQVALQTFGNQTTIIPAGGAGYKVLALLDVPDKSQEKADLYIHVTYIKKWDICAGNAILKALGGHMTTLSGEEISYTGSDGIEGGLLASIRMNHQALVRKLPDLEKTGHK
UniProt Q96SY0, whole entry, looked up: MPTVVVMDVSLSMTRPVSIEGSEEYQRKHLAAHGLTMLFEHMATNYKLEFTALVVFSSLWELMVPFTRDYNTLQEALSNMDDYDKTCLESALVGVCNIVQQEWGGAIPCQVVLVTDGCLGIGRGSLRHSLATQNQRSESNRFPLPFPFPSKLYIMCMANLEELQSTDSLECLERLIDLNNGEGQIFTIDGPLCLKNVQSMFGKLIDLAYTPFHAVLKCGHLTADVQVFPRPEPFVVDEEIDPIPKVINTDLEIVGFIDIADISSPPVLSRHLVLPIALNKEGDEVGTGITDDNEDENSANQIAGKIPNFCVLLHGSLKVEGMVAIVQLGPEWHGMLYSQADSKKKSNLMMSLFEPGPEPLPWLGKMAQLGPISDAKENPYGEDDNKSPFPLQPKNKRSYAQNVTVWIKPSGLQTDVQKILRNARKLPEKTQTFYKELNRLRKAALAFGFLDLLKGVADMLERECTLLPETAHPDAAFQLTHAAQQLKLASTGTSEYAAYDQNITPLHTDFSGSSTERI
UniProt Q9ULR0: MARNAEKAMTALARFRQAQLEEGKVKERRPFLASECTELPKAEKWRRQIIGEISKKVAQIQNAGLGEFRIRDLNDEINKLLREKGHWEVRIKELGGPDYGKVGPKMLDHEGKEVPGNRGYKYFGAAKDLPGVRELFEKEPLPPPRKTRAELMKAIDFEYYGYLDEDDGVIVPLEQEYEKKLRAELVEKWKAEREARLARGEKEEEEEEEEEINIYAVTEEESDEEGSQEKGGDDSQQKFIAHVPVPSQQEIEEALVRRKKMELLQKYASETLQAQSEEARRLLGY
UniProt P53990, whole entry, looked up: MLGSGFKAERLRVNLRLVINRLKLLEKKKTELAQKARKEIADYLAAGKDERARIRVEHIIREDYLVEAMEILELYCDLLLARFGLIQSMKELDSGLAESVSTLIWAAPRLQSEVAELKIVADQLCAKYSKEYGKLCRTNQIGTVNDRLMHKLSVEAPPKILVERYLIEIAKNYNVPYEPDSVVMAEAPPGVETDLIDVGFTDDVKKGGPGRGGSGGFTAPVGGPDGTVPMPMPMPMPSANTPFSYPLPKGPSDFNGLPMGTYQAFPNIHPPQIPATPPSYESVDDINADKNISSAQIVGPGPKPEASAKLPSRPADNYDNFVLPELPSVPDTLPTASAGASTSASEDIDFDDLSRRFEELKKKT
UniProt O00410: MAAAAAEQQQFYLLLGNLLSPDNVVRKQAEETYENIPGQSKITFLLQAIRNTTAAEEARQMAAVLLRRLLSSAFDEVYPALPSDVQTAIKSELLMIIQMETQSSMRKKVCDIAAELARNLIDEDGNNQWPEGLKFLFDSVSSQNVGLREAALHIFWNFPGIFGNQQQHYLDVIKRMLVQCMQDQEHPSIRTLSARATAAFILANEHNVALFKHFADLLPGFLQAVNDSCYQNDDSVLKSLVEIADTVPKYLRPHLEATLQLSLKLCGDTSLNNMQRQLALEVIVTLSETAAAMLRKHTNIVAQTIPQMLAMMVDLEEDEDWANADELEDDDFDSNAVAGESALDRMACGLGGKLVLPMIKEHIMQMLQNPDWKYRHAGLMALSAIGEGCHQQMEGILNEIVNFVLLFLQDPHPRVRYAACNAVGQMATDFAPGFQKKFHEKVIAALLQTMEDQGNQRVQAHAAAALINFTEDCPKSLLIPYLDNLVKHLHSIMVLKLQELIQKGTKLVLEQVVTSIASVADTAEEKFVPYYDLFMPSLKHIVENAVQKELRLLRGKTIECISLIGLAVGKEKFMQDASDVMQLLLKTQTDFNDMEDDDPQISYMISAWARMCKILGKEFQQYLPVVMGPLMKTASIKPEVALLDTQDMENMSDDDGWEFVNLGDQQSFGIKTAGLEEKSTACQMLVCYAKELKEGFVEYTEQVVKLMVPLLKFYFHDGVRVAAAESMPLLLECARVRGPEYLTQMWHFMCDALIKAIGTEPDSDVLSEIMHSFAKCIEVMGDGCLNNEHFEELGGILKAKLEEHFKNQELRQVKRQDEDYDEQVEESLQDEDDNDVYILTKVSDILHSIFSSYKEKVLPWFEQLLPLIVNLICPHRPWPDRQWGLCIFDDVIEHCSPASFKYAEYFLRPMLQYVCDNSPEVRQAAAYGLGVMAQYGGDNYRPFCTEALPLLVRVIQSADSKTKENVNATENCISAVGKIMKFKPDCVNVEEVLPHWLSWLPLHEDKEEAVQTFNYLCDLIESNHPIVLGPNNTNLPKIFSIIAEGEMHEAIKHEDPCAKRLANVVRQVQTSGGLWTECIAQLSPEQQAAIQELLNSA
UniProt Q13422: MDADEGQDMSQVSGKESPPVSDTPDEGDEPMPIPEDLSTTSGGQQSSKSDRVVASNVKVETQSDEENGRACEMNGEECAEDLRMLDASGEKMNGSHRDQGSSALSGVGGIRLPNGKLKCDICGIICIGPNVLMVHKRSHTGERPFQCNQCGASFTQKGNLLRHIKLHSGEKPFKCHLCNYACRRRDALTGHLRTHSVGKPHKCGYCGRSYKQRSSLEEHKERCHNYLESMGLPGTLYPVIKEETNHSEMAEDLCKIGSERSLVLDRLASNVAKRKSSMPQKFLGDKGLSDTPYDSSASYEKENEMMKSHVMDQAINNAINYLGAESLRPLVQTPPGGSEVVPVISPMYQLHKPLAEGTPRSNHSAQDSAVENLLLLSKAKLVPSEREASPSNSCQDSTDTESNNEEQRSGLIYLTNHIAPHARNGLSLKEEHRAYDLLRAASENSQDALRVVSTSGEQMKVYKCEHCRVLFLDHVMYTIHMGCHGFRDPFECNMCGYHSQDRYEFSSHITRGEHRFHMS
UniProt Q06033: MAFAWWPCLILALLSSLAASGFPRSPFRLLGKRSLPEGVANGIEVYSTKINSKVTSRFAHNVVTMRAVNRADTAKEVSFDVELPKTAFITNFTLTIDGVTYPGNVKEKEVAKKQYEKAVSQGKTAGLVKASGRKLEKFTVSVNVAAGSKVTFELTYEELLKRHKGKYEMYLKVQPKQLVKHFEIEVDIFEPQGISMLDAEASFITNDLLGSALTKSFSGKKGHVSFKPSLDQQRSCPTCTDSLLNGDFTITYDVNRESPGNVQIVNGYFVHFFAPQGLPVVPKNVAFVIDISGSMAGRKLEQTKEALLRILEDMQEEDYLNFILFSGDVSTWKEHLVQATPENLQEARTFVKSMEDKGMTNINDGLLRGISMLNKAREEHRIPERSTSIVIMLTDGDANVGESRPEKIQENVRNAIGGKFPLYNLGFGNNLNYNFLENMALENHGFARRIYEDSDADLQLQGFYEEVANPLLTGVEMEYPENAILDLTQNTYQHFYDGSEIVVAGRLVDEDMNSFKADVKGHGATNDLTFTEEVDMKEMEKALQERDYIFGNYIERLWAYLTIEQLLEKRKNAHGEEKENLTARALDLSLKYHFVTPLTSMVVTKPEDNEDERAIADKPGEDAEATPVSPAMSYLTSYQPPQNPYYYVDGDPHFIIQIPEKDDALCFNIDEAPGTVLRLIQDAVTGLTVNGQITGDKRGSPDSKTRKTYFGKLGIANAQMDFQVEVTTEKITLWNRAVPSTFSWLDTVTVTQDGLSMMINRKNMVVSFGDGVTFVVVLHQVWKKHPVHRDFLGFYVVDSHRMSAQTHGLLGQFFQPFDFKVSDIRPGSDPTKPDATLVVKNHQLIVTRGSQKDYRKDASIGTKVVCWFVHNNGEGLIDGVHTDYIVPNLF

[2] = compound: Cc1cccc(CC(=O)N2CCc3c2ccc(-c2cn(C)c4ncnc(N)c24)c3F)n1
How it was run: as §1

[3] = compound: Cc1cn(-c2cc(NC(=O)c3ccc(C)c(Nc4nccc(-c5cccnc5)n4)c3)cc(C(F)(F)F)c2)cn1 [nilotinib]
How it was run: as §1

[4] = compound: Cc1nc(Nc2n[nH]c3c2CN(C(=O)N[C@H](CN(C)C)c2ccccc2)C3(C)C)c2sccc2n1
How it was run: as §1

[5] = compound: Cc1nc(Nc2ncc(C(=O)Nc3c(C)cccc3Cl)s2)cc(N2CCN(CCO)CC2)n1 [dasatinib]
How it was run: as §1

[6] = compound: Cc1ncc(-c2ccnc(Nc3ccc(S(C)(=O)=O)cc3)n2)n1C(C)C
How it was run: as §1

[7] = compound: Cn1cc(-c2ccc3c(c2)CCN3C(=O)Cc2cccc(C(F)(F)F)c2)c2c(N)ncnc21
How it was run: as §1

[8] = compound: Cn1cc(-c2ccc3nnc(C(F)(F)c4ccc5ncccc5c4)n3n2)cn1
How it was run: as §1

[9] = compound: Cn1cncc1[C@@](N)(c1ccc(Cl)cc1)c1ccc2c(c1)c(-c1cccc(Cl)c1)cc(=O)n2C [tipifarnib]
How it was run: as §1

[10] = compound: FC(F)(F)c1ccc(/C=C/c2nc(COc3ccc(CCCCn4ccnn4)cc3)co2)cc1 [mubritinib]
How it was run: as §1

[11] = compound: NC(=O)Nc1cc(-c2cccc(F)c2)sc1C(=O)N[C@H]1CCCNC1
How it was run: as §1

[12] = compound: NC(=O)c1cnc(N[C@@H]2CCCC[C@@H]2N)nc1Nc1cccc(-n2nccn2)c1
How it was run: as §1

[13] = compound: NC1(c2ccc(-c3nc4ccn5c(=O)[nH]nc5c4cc3-c3ccccc3)cc2)CCC1
How it was run: as §1

[14] = compound: NCC(=O)Nc1ccc(-n2nc(C(F)(F)F)cc2-c2ccc3c(ccc4ccccc43)c2)cc1
How it was run: as §1

[15] = compound: Nc1ccccc1NC(=O)c1ccc(CNC(=O)OCc2cccnc2)cc1 [entinostat]
How it was run: as §1

[16] = compound: O=C(CCCCCCC(=O)Nc1ccccc1)NO [vorinostat]
How it was run: as §1

[17] = compound: O=C(CCCCCCNC(=O)c1cnc(N(c2ccccc2)c2ccccc2Cl)nc1)NO [citarinostat]
How it was run: as §1

[18] = compound: O=C(O)c1ccc2c(c1)nc(Nc1cccc(Cl)c1)c1ccncc12 [silmitasertib]
How it was run: as §1

[19] = compound: O=C1NC(=O)C(c2cnc3ccccn23)=C1c1cn2c3c(cc(F)cc13)CN(C(=O)N1CCCCC1)CC2
How it was run: as §1

[20] = compound: c1cc(OCCN2CCCCC2)cc(-c2n[nH]c3ccc(-c4nnc[nH]4)cc23)c1
How it was run: as §1

Measured: log2 fold change

INTS4 (UniProt Q96HW7)
inactive: [1] -0.018 | [2] -0.005 | [3] 0.04 | [4] -0.03 | [5] -0.048 | [6] -0.048 | [7] 0.026 | [8] -0.023 | [9] 0.048 | [10] 0.053 | [11] 0.019 | [12] -0.035 | [13] -0.031 | [14] -0.024 | [15] 0.024 | [16] -0.008 | [17] 0.007 | [18] 0.02 | [19] -0.018 | [20] -0.01

IPO13 (UniProt O94829)
inactive: [1] -0.11 | [2] -0.006 | [3] -0.001 | [4] -0.094 | [5] -0.021 | [6] 0.071 | [7] -0.022 | [8] -0.025 | [9] -0.106 | [10] 0.06 | [11] 0.051 | [12] -0.101 | [13] -0.206 | [14] -0.112 | [15] 0.012 | [16] 0.138 | [17] 0.067 | [18] 0.081 | [19] -0.046 | [20] -0.175

ITIH2 (UniProt P19823)
inactive: [1] -0.104 | [2] -0.097 | [3] 0.093 | [4] 0.016 | [5] 0.127 | [6] 0.41 | [7] 0.254 | [8] -0.164 | [9] 0.049 | [10] -0.335 | [11] -0.115 | [12] 0.016 | [13] 0.148 | [14] 0.035 | [15] -0.005 | [16] 0.003 | [17] -0.01 | [18] 0.122 | [19] 0.095 | [20] 0.583

IRGQ (UniProt Q8WZA9)
inactive: [1] -0.017 | [2] 0.035 | [3] -0.042 | [4] -0.031 | [5] -0.074 | [6] 0.015 | [7] 0.024 | [8] 0.049 | [9] -0.034 | [10] 0.027 | [11] 0.019 | [12] -0.004 | [13] -0.096 | [14] -0.04 | [15] 0.076 | [16] 0 | [17] 0.028 | [18] 0.043 | [19] -0.007 | [20] -0.006

IMPA1 (UniProt E5RIP7)
inactive: [1] 0.034

IMPAD1 (UniProt Q9NX62)
inactive: [1] 0.009 | [2] -0.029 | [3] -0.018 | [4] -0.037 | [5] 0.016 | [6] -0.006 | [7] 0.017 | [8] -0.11 | [9] 0.013 | [10] -0.016 | [11] -0.036 | [12] -0.006 | [13] -0.021 | [14] -0.03 | [15] -0.031 | [16] -0.072 | [17] -0.011 | [18] -0.011 | [19] -0.018 | [20] -0.042

IQGAP1 (UniProt P46940)
inactive: [1] -0.028 | [2] 0.057 | [3] -0.084 | [4] -0.046 | [5] -0.135 | [6] -0.054 | [7] 0.052 | [8] 0.012 | [9] -0.026 | [10] 0.082 | [11] -0.029 | [12] -0.012 | [13] -0.165 | [14] -0.047 | [15] 0.059 | [16] 0.05 | [17] 0.069 | [18] -0.047 | [19] -0.079 | [20] -0.054

INTS14 (UniProt Q96SY0)
inactive: [1] -0.051 | [2] 0.044 | [3] -0.016 | [4] -0.049 | [5] -0.054 | [6] -0.037 | [7] 0.059 | [8] 0.009 | [9] 0.004 | [10] 0.021 | [11] -0.01 | [12] -0.06 | [13] -0.132 | [14] -0.043 | [15] 0.059 | [16] 0.066 | [17] 0.062 | [18] 0.017 | [19] -0.045 | [20] -0.024

ITCH (UniProt Q96J02)
inactive: [1] -0.072 | [2] -0.044 | [3] -0.07 | [4] -0.043 | [5] -0.093 | [6] 0.105 | [7] 0.016 | [8] 0.01 | [9] -0.032 | [10] -0.012 | [11] -0.025 | [12] -0.126 | [13] -0.104 | [14] 0.05 | [15] 0.039 | [16] 0.078 | [17] 0.018 | [18] 0.017 | [19] -0.032 | [20] -0.183

ITPA (UniProt Q9BY32)
inactive: [1] -0.077 | [2] -0.008 | [3] 0.018 | [4] 0.003 | [5] 0.022 | [6] 0.012 | [7] 0.052 | [8] 0.067 | [9] -0.037 | [10] 0.036 | [11] 0.018 | [12] 0.045 | [13] 0.018 | [14] 0.042 | [15] -0.033 | [16] -0.044 | [17] -0.006 | [18] -0.06 | [19] -0.055 | [20] -0.009

ISY1 isoform 1 (UniProt Q9ULR0)
inactive: [1] -0.071 | [2] -0.095 | [3] -0.036 | [4] 0.04 | [5] 0.122 | [6] 0.059 | [7] -0.073 | [8] 0.014 | [9] 0.021 | [10] 0.068 | [11] 0.057 | [12] 0.03 | [13] 0.043 | [14] 0.035 | [15] -0.024 | [16] -0.007 | [17] -0.041 | [18] 0.059 | [19] 0.029 | [20] -0.069

IST1 isoform 5 (UniProt P53990)
inactive: [1] -0.02 | [2] -0.012 | [3] -0.018 | [4] 0.008 | [5] -0.09 | [6] -0.042 | [7] 0.028 | [8] 0.006 | [9] -0.079 | [10] 0.054 | [11] 0.006 | [12] -0.107 | [13] 0.109 | [14] -0.06 | [15] 0.053 | [16] -0.036 | [17] 0.042 | [18] 0.007 | [19] -0.023 | [20] -0.054

IPO5 isoform 3 (UniProt O00410)
inactive: [1] 0.03 | [2] 0.082 | [3] 0.003 | [4] -0.057 | [5] -0.082 | [6] -0.078 | [7] 0.036 | [8] -0.017 | [9] -0.106 | [10] 0.02 | [11] 0.015 | [12] -0.037 | [13] -0.206 | [14] 0.046 | [15] 0.001 | [16] 0.088 | [17] 0.055 | [18] -0.009 | [19] 0.041 | [20] -0.052

IKZF1 (UniProt Q13422)
inactive: [1] -0.062 | [2] -0.004 | [3] 0.237 | [4] -0.347 | [5] -0.121 | [6] -0.112 | [7] 0.072 | [8] 0.119 | [9] -0.026 | [10] -0.07 | [11] 0.164 | [12] -0.084 | [13] 0.21 | [14] -0.03 | [15] 0.064 | [16] 0.003 | [17] 0.019 | [18] -0.202 | [19] 0.004 | [20] -0.061

Random excerpt: 2 entries already listed, in no set order.
IKZF1 (UniProt Q13422)
inactive: [1] -0.062 | [2] -0.004 | [3] 0.237 | [4] -0.347 | [5] -0.121 | [6] -0.112 | [7] 0.072 | [8] 0.119 | [9] -0.026 | [10] -0.07 | [11] 0.164 | [12] -0.084 | [13] 0.21 | [14] -0.03 | [15] 0.064 | [16] 0.003 | [17] 0.019 | [18] -0.202 | [19] 0.004 | [20] -0.061

ISY1 isoform 1 (UniProt Q9ULR0)
inactive: [1] -0.071 | [2] -0.095 | [3] -0.036 | [4] 0.04 | [5] 0.122 | [6] 0.059 | [7] -0.073 | [8] 0.014 | [9] 0.021 | [10] 0.068 | [11] 0.057 | [12] 0.03 | [13] 0.043 | [14] 0.035 | [15] -0.024 | [16] -0.007 | [17] -0.041 | [18] 0.059 | [19] 0.029 | [20] -0.069

The results go on:

ITM2A (UniProt O43736)
inactive: [1] -0.077 | [2] 0.019 | [3] 0.065 | [4] -0.01 | [5] 0.129 | [6] 0.11 | [7] -0.109 | [8] -0.118 | [9] 0.077 | [10] -0.066 | [11] -0.025 | [12] 0.059 | [13] 0.031 | [14] -0.023 | [15] -0.035 | [16] 0.076 | [17] -0.02 | [18] 0.092 | [19] 0.115 | [20] -0.003

ITIH3 (UniProt Q06033)
inactive: [1] -0.102 | [2] -0.075 | [3] -0.027 | [4] 0.095 | [5] 0.057 | [6] 0.252 | [7] 0.321 | [8] -0.056 | [9] 0.041 | [10] -0.202 | [11] -0.067 | [12] 0.004 | [13] 0.109 | [14] 0.082 | [15] 0.004 | [16] 0.093 | [17] -0.016 | [18] 0.102 | [19] 0.057 | [20] 0.317
